At least one compound was matched to its structure with a doubt left.
Key:
[1] = test system: polyubiquitinated proteins; experiment: Western blot of polyubiquitinated proteins, SKOV3 cells; format: cell-based, human
Description: FIG. 14A illustrates SKOV3 cells treated with compounds for 4 h and analyzed by Western blot analysis with antibody to ubiquitin.
Antibodies, reagents, and Western Blot Analyses: Cell lysate (10-20 μg total protein) prepared in MPER (Pierce) from each sample was subjected to SDS-PAGE, transferred to PVDF membranes and analyzed by Western blot using antibodies specific Bax (#2772, Cell Signaling), ubiquitin (P4D1, sc-8017, Santa Cruz), PARP (#9542, BD Pharmingen), actin (#66009, Protein Tech Group), Tubulin(#66031, Protein Tech Group), ADRM1/Rpn13 (D9Z1U, #12019, Cell Signaling), Lys48-linkled ubiquitin (Apu 2, 05-1307, (Millipore), Annexin V (#559763, BD pharmingen), caspase-3 (51-68655X, BD Pharmingen) at the dilutions recommended by the manufacturers, and for secondary antibodies either peroxidase-linked anti-mouse IgG or anti-rabbit IgG (GE Healthcare UK Ltd) were utilized, HRP conjugated streptavidin (N100, Thermo Fisher) at the recommended dilution (1:5000). MitoTracker Red CMXRos reagent was purchased from ThermoFisher #M7512. The blots were developed using HyGLO chemiluminescent detection reagent (Denville).

Chains of the proteins cited; added tags and fusions are not shown. Lines headed by an entry give the natural chain unless they say otherwise; changes in a name come on top.
UniProt Q16186: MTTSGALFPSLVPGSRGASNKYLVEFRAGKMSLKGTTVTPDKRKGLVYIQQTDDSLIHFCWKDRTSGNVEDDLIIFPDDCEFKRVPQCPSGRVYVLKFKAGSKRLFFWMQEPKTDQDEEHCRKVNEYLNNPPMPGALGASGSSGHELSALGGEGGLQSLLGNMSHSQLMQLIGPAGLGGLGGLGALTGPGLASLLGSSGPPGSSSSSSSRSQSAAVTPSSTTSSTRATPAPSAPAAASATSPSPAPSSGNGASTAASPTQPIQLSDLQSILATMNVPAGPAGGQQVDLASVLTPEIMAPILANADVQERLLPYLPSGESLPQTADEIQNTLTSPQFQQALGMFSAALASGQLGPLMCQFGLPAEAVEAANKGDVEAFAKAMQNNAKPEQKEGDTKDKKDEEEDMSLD

[2] = molecular target: T1, GSTO1 (Homo sapiens, UniProt P78417); experiment: KT59 click chemistry probe competition in SKOV3 cell lysate; format: binding; details: KT59 10 μM
T1 construct: SKOV3 cell lysate was treated with 10 μM of KT59 for 30 min at 25° C; endogenous in cells; host or cells: SKOV3 cell lysate
T1 sequence (P78417 1-241): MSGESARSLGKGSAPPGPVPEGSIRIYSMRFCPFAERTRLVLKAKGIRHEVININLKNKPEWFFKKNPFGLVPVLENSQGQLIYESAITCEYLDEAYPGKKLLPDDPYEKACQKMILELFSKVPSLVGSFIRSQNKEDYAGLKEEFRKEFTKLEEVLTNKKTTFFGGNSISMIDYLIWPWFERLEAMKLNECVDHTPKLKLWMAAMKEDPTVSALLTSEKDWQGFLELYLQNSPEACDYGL

[3] = test system: intracellular GSH; experiment: Total GSH assay, SKOV3 cells; format: cell-based, human; details: SKOV3, 0.5 μM, 12 hr
Description: Luciferase and GSH assays: Sub-confluent cultures of cells were transfected with 4Ub-FL or FL plasmid using Lipofectamine 2000 reagent (Life Technologies). Cells were seeded at 10,000 cells/well in 96-wells plate 48 hr post transfection and incubated with compounds or vehicle (DMSO) at the doses and times indicated. Luciferase activity in cell lysate was determined with a luciferase assay kit (Promega) according to the manufacturer's instructions. Bioluminescence was measured by using a Glomax Multidetection system (Promega). Glutathione was assayed using the Promega GSH assay kit (V6611).

[4] = test system: CHOP-10 mRNA; experiment: RT-qPCR of CHOP-10 mRNA, ES2 cells; format: cell-based, human
Description: FIG. 7A illustrates ES2 cells (250,000 cells/well) treated with compounds at 1 μM for 12 hr and mRNA was isolated. Samples were subjected to RT-qPCR to measure CHOP10 and mRNA levels normalized to GAPDH expression. Significance versus DMSO control (ns=not significant, ** <0.01, *** <0.001, **** <0.0001).
FIG. 16A illustrates ES2 cells treated with compounds (0.5 μM) for 12 hr and CHOP-10 mRNA levels, an ER stress marker, which was analyzed by qRT-PCR.
Q-PCR to measure mRNA levels: Total RNA was isolated from cells using the RNeasy mini kit (Qiagen) according to the manufacturer's instructions. Extracted RNA was normalized for concentration and reverse transcribed using an iScript cDNA synthesis kit (Bio-Rad) according to the manufacturer's instructions. CHOP10 expression levels were measured by Taqman gene expression assays with Taqman gene expression master mix (Applied Biosystems) and run with a standard thermal cycling protocol. Spliced XBP1 mRNA was assayed with SsoFast EvaGreen Supermix (Bio-rad) following the protocol for the iCycler System using as primers: F: 5′-[…]-3′ and R: 5′-[…]-3′. Calculations were done according to the Livak method and normalized to the reference gene GAPDH. Each condition was replicated three times; each sample was run in triplicate.

[5] = test system: XBP1 spliced mRNA; experiment: RT-qPCR of XBP1 spliced mRNA, ES2 cells; format: cell-based, human; details: ES2, 1 μM, 12 hr
[6] = test system: reactive oxygen species (ROS); experiment: ROS by H2DCFDA flow cytometry, ES2 cells; format: cell-based, human; details: ES2, 1 μM, 12 hr
[7] = test system: ROS; experiment: ROS by Amplex Red, SKOV3 cells; format: cell-based, human; details: SKOV3, 12 hr
[8] = test system: ROS; experiment: ROS by Amplex Red, ES2 cells; format: cell-based, human
Description: FIG. 16C illustrates ES2 cells treated for 12 hr with compounds (or as a positive control, H2O2) at the indicated doses, and then reactive oxygen species (i.e. ROS) levels measured by adding Amplex Red and HRP.
Amplex Red Assay to measure ROS: Amplex Red reagent (#A12222, Thermo Scientific) combined with horseradish peroxidase (HRP) was used to detect H2O2. Briefly cells were treated in 96 well plates with corresponding compounds at indicated times. Next 50 μM Amplex® Red reagent plus 1 U/mL HRP in 50 mM sodium phosphate buffer, pH 7.4, were added to cells and incubated for 30 minutes at room temperature. Fluorescence was measured with a fluorescence-based microplate reader using excitation at 530±12.5 nm and detection at 580±25 nm. Background fluorescence of 969 units for Amplex® Red reagent, determined for a no-H2O2 control reaction, was subtracted from each value. H2O2 treatment (1 h) was used as positive control.

[9] = test system: Caspase 3; experiment: Caspase 3 cleavage flow cytometry, ES2 cells; format: cell-based, human; details: ES2, 1 μM, 18 hr
[10] = test system: proteasome (4UbFL reporter); experiment: 4UbFL reporter in leg muscle of BALB/c mice; format: in vivo; details: single 40 mg/Kg i.p.; 4-96 h
Description: FIG. 9B illustrates BALB/c mice electroporated with 4UbFL plasmid (10 μg/mouse) in the leg muscle and the basal luminescence was recorded after 48 hr. Groups of mice (n=5) were treated with different compound (40 mg/Kg) or vehicle alone (25% (w/v) β-Hydroxypropylcyclodextrin in water). Mice were imaged for bioluminiscence activity using IVIS instrument at 4, 24, 48, 72 and 96 hr.
To test for proteasome inhibition by RA375 in vivo, an electroporation delivery was employed to transfect the leg muscle of mice with the 4UbFL reporter plasmid. […] At two days post electroporation of the 4UbFL DNA, mice were imaged, and base line luminescence recorded. […] After 4 h, 24 h, 48 h, 72 h and 96 h post treatment mice were again imaged, and bioluminescence was quantified.
Electroporation Method: A patch of CD1 or Balb/c mouse leg was shaved of hair and 10 μg 4Ub-FL plasmid in 20 μL of PBS was injected into the quadriceps femoralis muscle followed immediately by injection of the 2 Needle Array to 5 mm depth encompassing the injection site and square wave electroporation (ElectroSquarePorator 833, BTX-2 Needle array 5 mm gap, Harvard apparatus) delivered as eight pulses at 106V for 20 ms with 200 ms intervals. […] Equally sized areas were analyzed using Living Image 2.20 software. […]

[11] = test system: ES2-luc xenograft; experiment: ES2-luc intraperitoneal xenograft in nude mice; format: in vivo; details: 10 mg/Kg i.p. daily, 5 days on, two off, 2 weeks
Description: ES2 is a human cell line derived from a high grade ovarian clear cell carcinoma (42). The efficacy of RA375 against the ES2 xenograft model expressing luciferase (ES2-luc) was tested. Nude female mice were inoculated with ES2-luc cells into the peritoneal cavity. After 3 days the mice were imaged for their basal luminescence activity and randomized into two groups (n=8). […] Mice were imaged after the first and second week of treatment for their luciferase activity to assess tumor burden.
Briefly, female nude mice were injected interperitoneally (i.p.) with ES2-luc cells (1×10^6) in 100 μL PBS and the basal luminescence was measured after three days using IVIS 200 imaging after injecting luciferin. […] Over the treatment period mice were imaged every week for bioluminescence to monitor tumor growth.
Tumor Studies: Female C57BL6 or Nude mice were inoculated with 10^6 ES2-Luciferase cells i.p. in 100 uL PBC, or ID8-VegfDefb29 syngeneic mouse model of ovarian cancer expressing luciferase (62) i.p. in 100 μL PBS. At day 3, mice were imaged for basal level luminescence activity with a Xenogen IVIS 200 after injection i.p. with luciferin (0.3 mg in 100 water). Mice were randomized into two groups (n=8) and treated i.p. with compounds or vehicle (25% (w/v) β-Hydroxypropylcyclodextrin in water), and imaged again on days 7 and 14. RA375 was administered i.p. at 10 mg/Kg.

[12] = test system: HS578T cells; experiment: Colony formation assay, HS578T; format: cell-based; details: TNBC HS578T, 14 days
[13] = test system: SKOV3 cells; experiment: Colony formation assay, SKOV3; format: cell-based, human; details: ovarian SKOV3, 14 days
[14] = test system: SKOV3; experiment: MTT cytotoxicity assay, SKOV3
[15] = molecular target: RPN13 (Homo sapiens, UniProt Q16186); experiment: Competition with RA190B labeling of 42 kDa cellular target in cell lysate; format: binding; set-up: endogenous in cells; running text says HeLa) and OV2008 cell lysates; details: cell lysate pre-incubated with compounds (20 μM), then RA190B; HRP-streptavidin blot
Description: (§1) FIG. 1B illustrates precleared ES2 cell lysate incubated with compounds (20 μM) or vehicle (DMSO, 1:100) for 45 min and then with RA190B (5 μM) for 45 min at 4° C. by Western blot analysis. Samples were subjected to SDS-PAGE, transfer to PVDF membrane, and after probing with HRP-streptavidin, binding was detected using chemiluminescence.
as §1, with “2B” for “1B”, “OV2008” for “ES2”, “(10” for “(5”, “binding of” for “after probing with”, “HRP-streptavidin,” for “HRP-streptavidin, binding was”
Biotinylated RA190 (RA190B, FIG. 1A) is utilized as a probe to detect covalent binding to its cellular target(s) in detergent lysates of cancer cell lines (10). […] Here, the ability of compounds (FIG. 1A) to compete with RA190B binding to its 42 kDa cellular target (FIG. 1B) were examined. Compounds, including bortezomib as a negative control, were incubated with HeLa cell lysate and then RA190B added.
Biotin labeling Assay: Clarified cell lysate in MPER buffer was pretreated with streptavidin magna beads for 45 min at 4° C. to deplete non-specific biotinylated proteins in the cell lysate. […]

O=C(CCl)N[C@@H](Cc1ccccc1)C(=O)N1C/C(=C\c2ccc([N+](=O)[O-])cc2)C(=O)/C(=C/c2ccc([N+](=O)[O-])cc2)C1 [RA375]
accumulation of polyubiquitinated proteins [1]: enhanced the accumulation of polyubiquitinated proteins | competition of KT59 binding to GSTO1 [2]: no evidence of RA375 competing its binding to GSTO1 | cellular total GSH levels [3]: reduced intracellular GSH levels | CHOP-10 mRNA levels versus RA190 [4]: significantly higher levels of CHOP-10 mRNA than RA190 | XBP1 spliced mRNA levels versus RA190 [5]: significantly higher levels of XBP1 spliced mRNA | ROS induction (H2DCFDA) [6]: significantly induced | ROS levels (Amplex Red) [7]: higher levels of ROS than RA190 or bortezomib | level of ROS (Amplex Red) [8]: raised the level of ROS in a dose-dependent manner | cleavage of Caspase 3 [9]: induced rapid cleavage of Caspase 3 | increase in 4UbFL bioluminescence in muscle versus RA190 [10]: Stronger increases in bioluminescence | tumor burden (bioluminescence) [11]: significantly reduced tumor burden | survival ([11]; p=0.04): extended survival | colony formation [12]: potently inhibited | colony formation [13]: potently inhibited | activity in media with versus without cysteine and methionine [14]: No significant difference | effect of added glutathione (GSH) on cell killing [14]: reduced the cell killing effect | competition with RA190B binding to 42 kDa cellular target [15]: abrogated the binding of RA190B to its 42 KDa cellular target to varying degrees

— US12673918B2, “Small molecule RPN13 inhibitors with antitumor properties” (The Johns Hopkins University, priority 2019, dated 2026)
